Assay results from the supplement of paper PMC10849652.
The list shows a part of the results.

Sequences of proteins named here, by UniProt entry; tags and fusion partners are left off. A change or cut given only in a name is not applied to a line headed by its entry.
UniProt Q8IVH2: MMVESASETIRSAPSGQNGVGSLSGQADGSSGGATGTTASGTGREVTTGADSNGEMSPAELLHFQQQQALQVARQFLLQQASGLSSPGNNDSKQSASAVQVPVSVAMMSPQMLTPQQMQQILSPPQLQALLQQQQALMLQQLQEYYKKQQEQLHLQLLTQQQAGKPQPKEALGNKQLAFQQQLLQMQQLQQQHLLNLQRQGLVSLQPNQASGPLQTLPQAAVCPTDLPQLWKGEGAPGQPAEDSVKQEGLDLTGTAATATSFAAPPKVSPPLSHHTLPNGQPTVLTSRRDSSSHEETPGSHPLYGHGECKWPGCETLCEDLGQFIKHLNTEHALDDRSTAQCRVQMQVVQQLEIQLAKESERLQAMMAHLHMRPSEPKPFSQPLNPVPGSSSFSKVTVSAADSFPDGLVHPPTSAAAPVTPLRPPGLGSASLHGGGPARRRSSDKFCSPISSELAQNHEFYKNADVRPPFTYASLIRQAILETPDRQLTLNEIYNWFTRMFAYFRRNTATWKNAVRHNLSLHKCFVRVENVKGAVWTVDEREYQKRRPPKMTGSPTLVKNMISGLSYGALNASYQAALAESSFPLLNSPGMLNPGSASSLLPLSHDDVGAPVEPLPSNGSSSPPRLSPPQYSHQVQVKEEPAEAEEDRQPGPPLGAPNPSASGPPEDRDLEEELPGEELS
UniProt Q14393: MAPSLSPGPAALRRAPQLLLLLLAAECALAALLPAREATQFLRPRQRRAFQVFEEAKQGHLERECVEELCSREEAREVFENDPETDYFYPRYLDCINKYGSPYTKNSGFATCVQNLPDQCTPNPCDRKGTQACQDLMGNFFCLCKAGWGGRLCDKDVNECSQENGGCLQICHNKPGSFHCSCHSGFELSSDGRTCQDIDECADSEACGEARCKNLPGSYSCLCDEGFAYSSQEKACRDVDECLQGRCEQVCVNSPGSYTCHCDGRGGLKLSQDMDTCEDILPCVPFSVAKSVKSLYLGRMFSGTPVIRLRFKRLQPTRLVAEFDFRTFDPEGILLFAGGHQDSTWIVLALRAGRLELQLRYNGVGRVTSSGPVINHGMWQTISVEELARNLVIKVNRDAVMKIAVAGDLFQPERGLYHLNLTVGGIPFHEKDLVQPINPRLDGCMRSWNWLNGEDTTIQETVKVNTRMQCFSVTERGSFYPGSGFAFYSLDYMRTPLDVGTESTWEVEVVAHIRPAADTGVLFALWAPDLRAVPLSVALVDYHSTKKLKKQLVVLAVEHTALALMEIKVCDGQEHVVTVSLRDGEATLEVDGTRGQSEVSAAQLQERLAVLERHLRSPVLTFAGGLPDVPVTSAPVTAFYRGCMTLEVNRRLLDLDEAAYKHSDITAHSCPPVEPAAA
UniProt P15976: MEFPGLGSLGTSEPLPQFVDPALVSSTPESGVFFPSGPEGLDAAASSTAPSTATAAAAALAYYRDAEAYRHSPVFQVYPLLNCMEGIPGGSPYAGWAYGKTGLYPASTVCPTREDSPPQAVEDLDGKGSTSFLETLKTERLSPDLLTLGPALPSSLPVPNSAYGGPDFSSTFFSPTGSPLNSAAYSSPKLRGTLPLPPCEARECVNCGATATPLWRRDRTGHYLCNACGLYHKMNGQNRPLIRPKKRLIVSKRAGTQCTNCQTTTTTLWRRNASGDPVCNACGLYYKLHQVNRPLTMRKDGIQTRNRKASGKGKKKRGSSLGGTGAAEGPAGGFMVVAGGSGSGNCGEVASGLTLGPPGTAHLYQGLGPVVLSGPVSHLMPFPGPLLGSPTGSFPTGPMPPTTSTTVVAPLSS
UniProt Q9NZC3: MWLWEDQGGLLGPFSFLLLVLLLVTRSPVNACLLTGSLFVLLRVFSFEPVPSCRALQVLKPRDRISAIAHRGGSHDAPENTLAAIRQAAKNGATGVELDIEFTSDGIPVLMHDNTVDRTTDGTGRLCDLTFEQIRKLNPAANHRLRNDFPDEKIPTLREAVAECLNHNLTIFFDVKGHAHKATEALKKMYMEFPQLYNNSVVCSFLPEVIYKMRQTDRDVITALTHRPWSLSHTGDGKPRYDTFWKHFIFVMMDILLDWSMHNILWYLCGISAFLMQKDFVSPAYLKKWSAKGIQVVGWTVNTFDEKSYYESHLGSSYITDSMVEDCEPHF
UniProt P02774: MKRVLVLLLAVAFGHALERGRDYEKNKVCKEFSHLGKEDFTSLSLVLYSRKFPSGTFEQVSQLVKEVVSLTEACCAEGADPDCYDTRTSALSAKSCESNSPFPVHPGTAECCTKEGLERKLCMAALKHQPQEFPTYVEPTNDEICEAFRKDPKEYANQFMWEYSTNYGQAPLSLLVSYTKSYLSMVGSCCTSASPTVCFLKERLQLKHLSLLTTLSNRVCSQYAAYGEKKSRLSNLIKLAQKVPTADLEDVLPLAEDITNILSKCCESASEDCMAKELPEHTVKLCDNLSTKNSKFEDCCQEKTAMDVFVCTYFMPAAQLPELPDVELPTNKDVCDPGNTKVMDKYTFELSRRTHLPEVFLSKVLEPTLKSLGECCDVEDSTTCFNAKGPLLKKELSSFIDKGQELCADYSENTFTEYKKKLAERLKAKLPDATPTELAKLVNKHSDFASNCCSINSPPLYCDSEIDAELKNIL
UniProt Q92837: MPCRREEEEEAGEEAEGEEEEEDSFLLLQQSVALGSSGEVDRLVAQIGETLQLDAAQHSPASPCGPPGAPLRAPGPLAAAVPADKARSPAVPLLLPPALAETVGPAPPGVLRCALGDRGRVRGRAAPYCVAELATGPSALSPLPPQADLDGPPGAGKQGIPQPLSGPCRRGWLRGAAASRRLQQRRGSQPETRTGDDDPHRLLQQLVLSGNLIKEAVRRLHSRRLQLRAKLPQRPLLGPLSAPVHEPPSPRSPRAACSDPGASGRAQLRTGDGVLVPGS
UniProt Q86SR1: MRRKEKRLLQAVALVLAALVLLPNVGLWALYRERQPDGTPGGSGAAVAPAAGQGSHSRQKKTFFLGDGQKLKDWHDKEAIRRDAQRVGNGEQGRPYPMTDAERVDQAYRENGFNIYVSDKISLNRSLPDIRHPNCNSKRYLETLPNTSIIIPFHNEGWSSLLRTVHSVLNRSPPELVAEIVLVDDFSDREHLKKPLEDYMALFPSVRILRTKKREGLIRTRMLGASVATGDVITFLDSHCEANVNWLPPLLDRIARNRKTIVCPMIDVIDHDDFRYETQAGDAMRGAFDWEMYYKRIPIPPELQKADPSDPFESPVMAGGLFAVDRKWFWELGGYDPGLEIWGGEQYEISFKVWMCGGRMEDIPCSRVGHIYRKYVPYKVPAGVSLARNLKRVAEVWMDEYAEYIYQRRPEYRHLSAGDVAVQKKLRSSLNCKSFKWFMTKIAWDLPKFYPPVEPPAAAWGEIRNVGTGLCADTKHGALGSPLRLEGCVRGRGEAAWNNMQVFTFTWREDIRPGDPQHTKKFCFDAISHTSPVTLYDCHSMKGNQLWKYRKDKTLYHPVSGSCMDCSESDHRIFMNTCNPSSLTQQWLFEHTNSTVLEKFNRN
UniProt O94915: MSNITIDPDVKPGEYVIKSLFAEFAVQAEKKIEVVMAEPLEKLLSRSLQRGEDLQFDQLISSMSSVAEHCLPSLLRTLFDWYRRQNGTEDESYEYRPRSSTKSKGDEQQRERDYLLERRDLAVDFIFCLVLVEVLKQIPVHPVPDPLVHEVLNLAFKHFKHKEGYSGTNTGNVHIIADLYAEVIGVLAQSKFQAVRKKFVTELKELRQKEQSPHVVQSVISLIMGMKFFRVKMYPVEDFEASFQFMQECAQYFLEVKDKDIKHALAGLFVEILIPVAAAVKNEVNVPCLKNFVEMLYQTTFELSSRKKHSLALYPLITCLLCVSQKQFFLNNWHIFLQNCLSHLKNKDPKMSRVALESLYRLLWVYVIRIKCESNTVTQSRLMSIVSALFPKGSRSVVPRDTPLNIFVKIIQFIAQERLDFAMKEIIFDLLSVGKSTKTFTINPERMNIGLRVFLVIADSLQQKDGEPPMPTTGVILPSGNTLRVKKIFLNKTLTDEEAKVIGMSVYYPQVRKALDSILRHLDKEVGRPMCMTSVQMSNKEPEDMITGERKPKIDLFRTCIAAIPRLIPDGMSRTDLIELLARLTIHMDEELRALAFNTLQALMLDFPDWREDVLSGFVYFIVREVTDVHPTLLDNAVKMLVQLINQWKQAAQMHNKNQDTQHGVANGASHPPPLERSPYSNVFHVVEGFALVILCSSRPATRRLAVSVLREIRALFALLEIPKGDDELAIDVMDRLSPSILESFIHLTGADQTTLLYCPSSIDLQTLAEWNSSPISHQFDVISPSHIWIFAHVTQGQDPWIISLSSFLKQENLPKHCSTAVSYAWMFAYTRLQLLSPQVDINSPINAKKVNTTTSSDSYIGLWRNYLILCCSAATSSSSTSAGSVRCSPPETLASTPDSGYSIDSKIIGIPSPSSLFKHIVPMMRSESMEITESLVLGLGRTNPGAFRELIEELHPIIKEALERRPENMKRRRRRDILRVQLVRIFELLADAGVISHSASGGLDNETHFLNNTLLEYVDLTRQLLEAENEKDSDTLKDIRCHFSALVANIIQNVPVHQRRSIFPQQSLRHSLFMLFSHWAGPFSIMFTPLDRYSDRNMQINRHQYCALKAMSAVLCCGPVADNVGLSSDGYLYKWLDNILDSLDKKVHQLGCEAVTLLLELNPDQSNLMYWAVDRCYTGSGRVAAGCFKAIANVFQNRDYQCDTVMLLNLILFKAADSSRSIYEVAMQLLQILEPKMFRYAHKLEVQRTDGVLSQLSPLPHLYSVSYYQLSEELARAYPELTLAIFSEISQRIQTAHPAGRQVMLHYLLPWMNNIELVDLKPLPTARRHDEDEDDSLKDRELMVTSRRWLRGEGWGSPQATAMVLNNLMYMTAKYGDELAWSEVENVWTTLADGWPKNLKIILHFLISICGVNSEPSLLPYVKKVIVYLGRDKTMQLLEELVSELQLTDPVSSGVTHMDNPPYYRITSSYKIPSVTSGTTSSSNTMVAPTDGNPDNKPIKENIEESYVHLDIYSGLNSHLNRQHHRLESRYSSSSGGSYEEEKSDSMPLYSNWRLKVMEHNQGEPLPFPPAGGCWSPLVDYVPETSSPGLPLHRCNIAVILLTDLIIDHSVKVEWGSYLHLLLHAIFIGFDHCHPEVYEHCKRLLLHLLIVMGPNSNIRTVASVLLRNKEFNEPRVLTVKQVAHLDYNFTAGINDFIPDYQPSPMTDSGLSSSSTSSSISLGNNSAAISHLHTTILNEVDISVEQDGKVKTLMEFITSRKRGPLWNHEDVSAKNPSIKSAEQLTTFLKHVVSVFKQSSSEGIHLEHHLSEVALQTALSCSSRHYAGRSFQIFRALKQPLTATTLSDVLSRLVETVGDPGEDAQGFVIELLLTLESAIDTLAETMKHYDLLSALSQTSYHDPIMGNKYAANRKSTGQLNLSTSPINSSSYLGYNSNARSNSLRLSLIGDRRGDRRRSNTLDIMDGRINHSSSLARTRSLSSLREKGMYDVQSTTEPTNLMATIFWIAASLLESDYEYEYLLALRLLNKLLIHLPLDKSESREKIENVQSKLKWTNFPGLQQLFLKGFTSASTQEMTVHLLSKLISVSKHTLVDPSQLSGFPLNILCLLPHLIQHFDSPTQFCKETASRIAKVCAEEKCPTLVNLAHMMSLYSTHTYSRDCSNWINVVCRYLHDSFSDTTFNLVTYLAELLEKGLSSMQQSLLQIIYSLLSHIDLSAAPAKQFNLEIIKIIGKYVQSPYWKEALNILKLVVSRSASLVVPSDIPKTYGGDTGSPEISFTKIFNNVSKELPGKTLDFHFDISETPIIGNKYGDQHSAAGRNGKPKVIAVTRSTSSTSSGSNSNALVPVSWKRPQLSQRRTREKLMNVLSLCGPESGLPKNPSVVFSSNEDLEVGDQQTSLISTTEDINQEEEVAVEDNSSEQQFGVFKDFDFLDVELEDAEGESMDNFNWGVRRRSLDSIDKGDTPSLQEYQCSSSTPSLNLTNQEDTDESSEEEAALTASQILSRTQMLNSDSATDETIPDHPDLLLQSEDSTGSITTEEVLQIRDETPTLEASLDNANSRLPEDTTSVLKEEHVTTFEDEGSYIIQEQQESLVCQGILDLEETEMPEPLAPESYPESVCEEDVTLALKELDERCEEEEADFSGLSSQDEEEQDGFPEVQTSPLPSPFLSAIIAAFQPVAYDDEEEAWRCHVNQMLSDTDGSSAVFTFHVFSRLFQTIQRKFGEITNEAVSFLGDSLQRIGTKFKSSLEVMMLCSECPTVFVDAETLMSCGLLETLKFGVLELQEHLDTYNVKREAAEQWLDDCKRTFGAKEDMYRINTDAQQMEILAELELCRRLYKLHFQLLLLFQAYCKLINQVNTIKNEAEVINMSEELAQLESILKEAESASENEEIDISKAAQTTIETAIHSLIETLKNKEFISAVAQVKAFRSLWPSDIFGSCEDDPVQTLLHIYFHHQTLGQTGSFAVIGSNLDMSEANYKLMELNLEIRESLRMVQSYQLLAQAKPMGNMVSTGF

Experiments:
Test in all cases: log2 fold change, soluble protein after heating vs DMSO (PISA); higher = thermal stabilisation; K562 lysate, 10 uM; active = over 0.2 and 3.5 SD of the protein, either way, in both replicates (recomputed)
alvocidib = compound: CN1CC[C@H](c2c(O)cc(O)c3c(=O)cc(-c4ccccc4Cl)oc23)[C@H](O)C1 [alvocidib]
Summary of the method: (§1)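 Thermal stability, expressed as log-two fold change relative to solvent controls, is given from duplicates. Crude K562 extract in PBS pH 7.4 with 1 mM MgCl2, at 1 mg/mL protein, was treated with 10 μM compound for 30 min and heated in aliquots for 3 min across 48°C-58°C. After pooling, adjustment to 0.5% NP-40 at 4°C and centrifugation at 21,000xg for 90 min, supernatant protein was measured by TMTpro 16plex LC-MS/MS with channel sums equalised.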

Tubastatin A = compound: CN1CCc2c(c3ccccc3n2Cc2ccc(C(=O)NO)cc2)C1 [Tubastatin A]
Summary of the method: as §1

[1] = compound: CNC(=O)C1=CC=CC=C1NC2=NC(=NC=C2Cl)NC3=C(C=C(C=C3)N4CCOCC4)OC
Summary of the method: as §1

defactinib = compound: CNC(=O)c1ccc(Nc2ncc(C(F)(F)F)c(NCc3nccnc3N(C)S(C)(=O)=O)n2)cc1 [defactinib]
Summary of the method: as §1

[2] = compound: CNc1nc(-c2ccc3c(N)n[nH]c3c2)cc(N2C[C@@H](C(=O)NC3CCCCC3)CC[C@H]2C)n1
Summary of the method: as §1

encorafenib = compound: COC(=O)N[C@@H](C)CNc1nccc(-c2cn(C(C)C)nc2-c2cc(Cl)cc(NS(C)(=O)=O)c2F)n1 [encorafenib]
Summary of the method: as §1

[3] = compound: COC(=O)[C@H](CCSC)NC(=O)C1=C(C=C(C=C1)NC[C@H](CS)N)C2=CC=CC=C2
Summary of the method: as §1

[4] = compound: COc1cc2nc(-c3cc(F)ccc3O)nc(N[C@@H]3CNC[C@H]3C(C)(C)O)c2cc1OC
Summary of the method: as §1

lapatinib = compound: CS(=O)(=O)CCNCc1ccc(-c2ccc3ncnc(Nc4ccc(OCc5cccc(F)c5)c(Cl)c4)c3c2)o1 [lapatinib]
Summary of the method: as §1

pictilisib = compound: CS(=O)(=O)N1CCN(Cc2cc3nc(-c4cccc5[nH]ncc45)nc(N4CCOCC4)c3s2)CC1 [pictilisib]
Summary of the method: as §1

crizotinib = compound: C[C@@H](Oc1cc(-c2cnn(C3CCNCC3)c2)cnc1N)c1c(Cl)ccc(F)c1Cl [crizotinib]
Summary of the method: as §1

[5] = compound: C[C@H](C1=CC=C(C=C1)C(=O)NC2=C3C=CNC3=NC=C2)N
Summary of the method: as §1

duvelisib = compound: C[C@H](Nc1ncnc2nc[nH]c12)c1cc2cccc(Cl)c2c(=O)n1-c1ccccc1 [duvelisib]
Summary of the method: as §1

gandotinib = compound: Cc1cc(Nc2cc(CN3CCOCC3)c3nc(C)c(Cc4ccc(Cl)cc4F)n3n2)n[nH]1 [gandotinib]
Summary of the method: as §1

tozasertib = compound: Cc1cc(Nc2cc(N3CCN(C)CC3)nc(Sc3ccc(NC(=O)C4CC4)cc3)n2)n[nH]1 [tozasertib]
Summary of the method: as §1

doramapimod = compound: Cc1ccc(-n2nc(C(C)(C)C)cc2NC(=O)Nc2ccc(OCCN3CCOCC3)c3ccccc23)cc1 [doramapimod]
Summary of the method: as §1

bafetinib = compound: Cc1ccc(NC(=O)c2ccc(CN3CC[C@H](N(C)C)C3)c(C(F)(F)F)c2)cc1Nc1nccc(-c2cncnc2)n1 [bafetinib]
Summary of the method: as §1

[6] = compound: Cc1cccc(CC(=O)N2CCc3c2ccc(-c2cn(C)c4ncnc(N)c24)c3F)n1
Summary of the method: as §1

alisertib = compound: COc1cc(Nc2ncc3c(n2)-c2ccc(Cl)cc2C(c2c(F)cccc2OC)=NC3)ccc1C(=O)O [alisertib]
Summary of the method: as §1

gefitinib = compound: COc1cc2ncnc(Nc3ccc(F)c(Cl)c3)c2cc1OCCCN1CCOCC1 [gefitinib]
Summary of the method: as §1

Target | log2 fold change (alvocidib) | log2 fold change (Tubastatin A) | log2 fold change [1] | log2 fold change (defactinib) | log2 fold change [2] | log2 fold change (encorafenib) | log2 fold change [3] | log2 fold change [4] | log2 fold change (lapatinib) | log2 fold change (pictilisib) | log2 fold change (crizotinib) | log2 fold change [5] | log2 fold change (duvelisib) | log2 fold change (gandotinib) | log2 fold change (tozasertib) | log2 fold change (doramapimod) | log2 fold change (bafetinib) | log2 fold change [6] | log2 fold change (alisertib) | log2 fold change (gefitinib)
GDAP1 (UniProt Q8TB36) | inactive: 0.061 | inactive: -0.049 | inactive: -0.017 | inactive: 0.231 | inactive: -0.062 | inactive: 0.069 | inactive: 0 | inactive: 0.002 | inactive: -0.003 | inactive: 0.02 | inactive: 0.005 | inactive: 0.065 | inactive: 0.034 | inactive: -0.023 | inactive: 0.052 | inactive: -0.059 | inactive: 0.024 | inactive: -0.135 | – | –
FOXP4 (UniProt Q8IVH2) | inactive: 0.076 | inactive: -0.145 | inactive: -0.066 | inactive: -0.06 | inactive: -0.035 | inactive: -0.097 | inactive: 0.112 | – | – | inactive: 0.066 | – | inactive: 0.082 | inactive: 0.215 | inactive: -0.06 | inactive: -0.034 | – | inactive: -0.028 | inactive: 0.138 | inactive: 0.034 | inactive: 0.008
GAS6 isoform 1 (UniProt Q14393) | inactive: -0.05 | – | inactive: -0.144 | – | – | inactive: 0.149 | inactive: -0.072 | inactive: 0.176 | inactive: -0.225 | inactive: -0.07 | inactive: -0.233 | inactive: -0.348 | – | inactive: -0.012 | inactive: 0.022 | inactive: -0.194 | inactive: 0.046 | inactive: 0.094 | – | –
GAA (UniProt P10253) | inactive: -0.006 | inactive: 0.098 | inactive: -0.047 | active: -0.513 | – | inactive: 0.097 | inactive: -0.15 | inactive: 0.089 | inactive: 0.083 | inactive: 0.034 | inactive: -0.098 | inactive: -0.018 | – | inactive: 0.04 | inactive: -0.027 | inactive: -0.099 | inactive: 0.081 | inactive: -0.04 | inactive: -0.117 | inactive: -0.043
FRMD8 (UniProt Q9BZ67) | inactive: 0.059 | – | inactive: 0.071 | inactive: -0.039 | inactive: -0.018 | inactive: 0.008 | inactive: 0.033 | – | – | inactive: 0 | inactive: 0.054 | inactive: 0.098 | inactive: 0.021 | inactive: 0.036 | inactive: -0.068 | inactive: 0.073 | inactive: -0.049 | inactive: 0.054 | inactive: 0.038 | inactive: 0.054
FUOM (UniProt A2VDF0) | inactive: -0.028 | inactive: 0.119 | inactive: 0.082 | inactive: -0.059 | inactive: 0.075 | inactive: -0.071 | inactive: -0.046 | inactive: 0.021 | inactive: 0.017 | – | – | inactive: -0.061 | inactive: 0.166 | inactive: 0.235 | inactive: 0.09 | – | – | inactive: 0.212 | inactive: -0.026 | inactive: -0.034
GALNT7 (UniProt H0YAH3) | inactive: 0.153 | – | inactive: -0.217 | inactive: 0 | – | inactive: -0.053 | inactive: -0.052 | – | – | – | – | inactive: -0.011 | – | inactive: 0.036 | inactive: -0.024 | – | – | inactive: -0.075 | inactive: -0.072 | inactive: -0.021
FSIP2 (UniProt Q5CZC0) | inactive: -0.192 | inactive: 0.066 | inactive: -0.028 | – | inactive: 0.237 | – | – | inactive: 0.177 | inactive: -0.065 | – | inactive: -0.066 | inactive: -0.396 | inactive: 0.064 | inactive: 0.102 | – | inactive: 0.209 | – | inactive: 0.152 | inactive: 0.159 | inactive: 0.095
GATA1 (UniProt P15976) | inactive: -0.016 | inactive: -0.065 | inactive: 0.025 | – | inactive: -0.003 | – | – | inactive: -0.005 | inactive: 0.006 | inactive: 0.121 | inactive: -0.031 | inactive: 0.073 | inactive: -0.074 | inactive: 0.042 | – | inactive: 0.017 | inactive: 0.001 | inactive: 0.019 | inactive: 0.013 | inactive: -0.015
GDE1 (UniProt Q9NZC3) | inactive: 0.307 | inactive: -0.047 | inactive: 0.014 | – | inactive: 0.024 | inactive: -0.045 | inactive: -0.02 | inactive: -0.038 | inactive: -0.016 | inactive: 0.114 | inactive: -0.005 | active: 0.842 | inactive: 0.049 | active: -0.434 | inactive: 0.157 | inactive: -0.017 | inactive: -0.041 | active: -0.409 | – | –
GC isoform 3 (UniProt P02774) | inactive: 0.105 | inactive: 0.087 | – | inactive: -0.003 | inactive: 0.244 | inactive: -0.018 | inactive: -0.049 | – | – | – | inactive: 0.029 | inactive: 0.173 | inactive: 0.133 | inactive: -0.025 | inactive: -0.004 | inactive: -0.081 | – | inactive: -0.075 | – | –
FUS (UniProt H3BPE7) | – | – | – | – | inactive: 0.452 | – | – | – | – | – | – | – | inactive: -0.23 | – | – | – | – | – | – | –
G3BP2 isoform 2 (UniProt Q9UN86) | inactive: 0.023 | – | – | – | inactive: 0.058 | – | – | inactive: -0.049 | inactive: 0.056 | – | inactive: -0.08 | inactive: 0.244 | inactive: -0.171 | inactive: -0.058 | – | inactive: -0.024 | – | inactive: -0.103 | – | –
FUNDC2 (UniProt H7C0K8) | – | – | – | inactive: -0.048 | – | – | – | inactive: 0.096 | inactive: -0.128 | inactive: -0.244 | – | – | – | – | – | – | inactive: -0.102 | – | inactive: -0.112 | inactive: -0.087
GDPD5 (UniProt Q8WTR4) | – | – | – | inactive: 0.039 | – | – | – | – | – | – | inactive: 0.002 | – | – | – | – | inactive: -0.02 | – | – | – | –
FRAT1 (UniProt Q92837) | – | – | – | inactive: -0.204 | inactive: 0.287 | inactive: 0.042 | inactive: -0.128 | – | – | – | – | – | inactive: -0.006 | – | inactive: -0.115 | – | – | – | – | –
GALNT10 (UniProt Q86SR1) | – | – | inactive: 0.003 | inactive: -0.04 | inactive: 0.027 | inactive: 0.077 | inactive: 0.01 | inactive: 0.071 | inactive: 0.078 | inactive: 0.043 | – | – | inactive: 0.067 | – | inactive: -0.122 | – | inactive: -0.086 | – | – | –
FRYL isoform 2 (UniProt O94915) | inactive: -0.038 | – | – | – | – | – | – | – | – | – | – | inactive: -0.204 | – | inactive: 0.143 | – | – | – | inactive: 0.193 | – | –

Shown comma-delimited: entries from further up.
Target,log2 fold change (alvocidib),log2 fold change (Tubastatin A),log2 fold change [1],log2 fold change (defactinib),log2 fold change [2],log2 fold change (encorafenib),log2 fold change [3],log2 fold change [4],log2 fold change (lapatinib),log2 fold change (pictilisib),log2 fold change (crizotinib),log2 fold change [5],log2 fold change (duvelisib),log2 fold change (gandotinib),log2 fold change (tozasertib),log2 fold change (doramapimod),log2 fold change (bafetinib),log2 fold change [6],log2 fold change (alisertib),log2 fold change (gefitinib)
FUOM (UniProt A2VDF0),inactive: -0.028,inactive: 0.119,inactive: 0.082,inactive: -0.059,inactive: 0.075,inactive: -0.071,inactive: -0.046,inactive: 0.021,inactive: 0.017,–,–,inactive: -0.061,inactive: 0.166,inactive: 0.235,inactive: 0.09,–,–,inactive: 0.212,inactive: -0.026,inactive: -0.034
GALNT7 (UniProt H0YAH3),inactive: 0.153,–,inactive: -0.217,inactive: 0,–,inactive: -0.053,inactive: -0.052,–,–,–,–,inactive: -0.011,–,inactive: 0.036,inactive: -0.024,–,–,inactive: -0.075,inactive: -0.072,inactive: -0.021
